The list shows a part of the results.
The targets below were run with C1=CC2=C(C=CC(=C2)/C=C\3/C(=O)NC(=NCC4=CC=CS4)S3)N=C1 (assay: log2 fold change, soluble protein after heating vs DMSO (PISA); higher = thermal stabilisation; K562 lysate, 10 uM; active = over 0.2 and 3.5 SD of the protein, either way, in both replicates (recomputed)).
Procedure, shortened: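 Soluble protein was defined as the supernatant remaining after 21,000xg for 90 min, following pooling of heated aliquots and adjustment to 0.5% NP-40 at 4°C. Before that, crude K562 extract at 1 mg/mL protein in PBS pH 7.4 with 1 mM MgCl2 was treated with 10 μM compound for 30 min and heated for 3 min across 48°C-58°C. Quantification used TMTpro 16plex LC-MS/MS with channel sums equalised, and values are log-two fold changes in thermal stability relative to solvent controls from duplicates.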

The chains behind the UniProt entries cited, without tags or fusion partners. Where a name states a change or a piece, a line headed by the entry shows the natural chain unless it says otherwise.
UniProt P0C7M4: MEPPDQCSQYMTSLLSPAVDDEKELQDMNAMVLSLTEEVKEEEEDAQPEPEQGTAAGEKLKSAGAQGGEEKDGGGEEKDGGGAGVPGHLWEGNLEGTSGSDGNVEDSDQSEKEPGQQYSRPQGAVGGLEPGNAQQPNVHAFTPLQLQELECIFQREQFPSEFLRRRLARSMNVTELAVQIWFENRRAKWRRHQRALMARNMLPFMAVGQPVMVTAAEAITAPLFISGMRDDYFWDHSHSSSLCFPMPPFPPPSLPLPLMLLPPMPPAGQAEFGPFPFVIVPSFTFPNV
UniProt P78317: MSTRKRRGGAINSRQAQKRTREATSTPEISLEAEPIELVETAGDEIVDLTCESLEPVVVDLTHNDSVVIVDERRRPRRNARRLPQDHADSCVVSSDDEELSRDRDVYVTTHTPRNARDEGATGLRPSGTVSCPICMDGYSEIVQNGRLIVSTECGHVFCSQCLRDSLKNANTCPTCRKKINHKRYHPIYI
UniProt P17081: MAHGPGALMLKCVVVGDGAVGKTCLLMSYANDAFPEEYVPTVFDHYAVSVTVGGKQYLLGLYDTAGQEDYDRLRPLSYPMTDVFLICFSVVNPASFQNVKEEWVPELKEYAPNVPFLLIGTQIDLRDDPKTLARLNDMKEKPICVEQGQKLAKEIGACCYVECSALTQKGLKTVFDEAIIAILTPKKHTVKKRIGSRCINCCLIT
UniProt Q9Y4L5, whole entry, looked up: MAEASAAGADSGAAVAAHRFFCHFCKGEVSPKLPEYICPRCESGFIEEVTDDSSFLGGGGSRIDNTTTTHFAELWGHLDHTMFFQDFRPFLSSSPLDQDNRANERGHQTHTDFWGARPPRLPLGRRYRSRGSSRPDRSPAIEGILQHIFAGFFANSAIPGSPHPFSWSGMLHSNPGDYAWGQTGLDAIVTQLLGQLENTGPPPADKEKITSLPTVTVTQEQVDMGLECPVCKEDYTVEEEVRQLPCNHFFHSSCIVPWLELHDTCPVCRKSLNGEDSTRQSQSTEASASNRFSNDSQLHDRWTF
UniProt Q8WU17: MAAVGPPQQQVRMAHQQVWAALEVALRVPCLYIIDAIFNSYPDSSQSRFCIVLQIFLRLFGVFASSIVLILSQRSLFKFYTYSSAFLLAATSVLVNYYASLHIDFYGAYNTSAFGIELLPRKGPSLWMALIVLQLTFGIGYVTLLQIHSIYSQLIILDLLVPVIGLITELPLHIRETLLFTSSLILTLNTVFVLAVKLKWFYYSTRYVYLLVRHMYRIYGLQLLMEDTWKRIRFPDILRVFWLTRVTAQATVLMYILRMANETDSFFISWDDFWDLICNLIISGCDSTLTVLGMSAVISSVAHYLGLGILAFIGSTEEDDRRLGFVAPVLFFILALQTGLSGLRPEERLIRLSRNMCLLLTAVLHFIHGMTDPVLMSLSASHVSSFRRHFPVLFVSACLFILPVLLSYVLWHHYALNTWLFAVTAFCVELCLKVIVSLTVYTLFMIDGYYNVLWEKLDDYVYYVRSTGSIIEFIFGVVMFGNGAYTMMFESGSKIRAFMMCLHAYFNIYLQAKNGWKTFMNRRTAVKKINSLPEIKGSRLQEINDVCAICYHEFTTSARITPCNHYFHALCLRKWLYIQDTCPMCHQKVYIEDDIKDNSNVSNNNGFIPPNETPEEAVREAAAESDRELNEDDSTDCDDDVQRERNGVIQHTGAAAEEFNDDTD
UniProt Q96G75, whole entry, looked up: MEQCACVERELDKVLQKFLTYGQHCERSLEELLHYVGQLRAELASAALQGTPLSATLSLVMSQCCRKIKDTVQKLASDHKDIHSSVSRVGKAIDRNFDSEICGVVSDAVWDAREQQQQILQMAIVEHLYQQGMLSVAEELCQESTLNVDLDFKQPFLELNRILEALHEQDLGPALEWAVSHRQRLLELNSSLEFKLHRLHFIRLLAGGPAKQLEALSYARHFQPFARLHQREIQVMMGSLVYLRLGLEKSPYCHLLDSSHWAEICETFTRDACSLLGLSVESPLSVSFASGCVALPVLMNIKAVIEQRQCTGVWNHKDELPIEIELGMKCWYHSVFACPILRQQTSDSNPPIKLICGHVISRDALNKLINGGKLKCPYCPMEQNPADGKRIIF
UniProt Q9HAU8: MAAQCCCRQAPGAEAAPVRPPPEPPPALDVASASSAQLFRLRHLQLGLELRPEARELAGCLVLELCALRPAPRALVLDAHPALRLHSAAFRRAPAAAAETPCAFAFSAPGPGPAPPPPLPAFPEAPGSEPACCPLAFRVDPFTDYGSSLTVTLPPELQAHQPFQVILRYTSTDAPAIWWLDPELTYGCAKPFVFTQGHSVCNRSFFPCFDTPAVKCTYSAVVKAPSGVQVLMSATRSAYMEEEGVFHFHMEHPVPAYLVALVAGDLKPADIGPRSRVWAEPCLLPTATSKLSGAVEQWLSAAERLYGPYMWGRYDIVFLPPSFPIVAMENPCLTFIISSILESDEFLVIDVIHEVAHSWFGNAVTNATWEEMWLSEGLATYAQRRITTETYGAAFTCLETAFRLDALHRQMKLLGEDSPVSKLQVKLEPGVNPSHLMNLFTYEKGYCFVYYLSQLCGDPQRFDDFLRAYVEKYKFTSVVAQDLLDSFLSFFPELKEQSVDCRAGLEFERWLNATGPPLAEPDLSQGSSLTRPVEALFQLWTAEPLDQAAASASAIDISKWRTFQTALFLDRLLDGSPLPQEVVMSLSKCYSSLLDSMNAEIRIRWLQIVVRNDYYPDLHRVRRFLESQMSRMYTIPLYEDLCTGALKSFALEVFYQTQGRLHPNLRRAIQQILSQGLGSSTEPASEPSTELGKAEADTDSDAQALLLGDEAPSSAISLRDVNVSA
UniProt Q8TA86: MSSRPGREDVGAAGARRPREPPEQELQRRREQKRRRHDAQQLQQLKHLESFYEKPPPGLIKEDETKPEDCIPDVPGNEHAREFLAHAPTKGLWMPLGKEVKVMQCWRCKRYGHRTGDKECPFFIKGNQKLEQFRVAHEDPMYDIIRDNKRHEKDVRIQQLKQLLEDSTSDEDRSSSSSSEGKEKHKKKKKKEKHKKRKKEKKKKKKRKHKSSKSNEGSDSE
UniProt Q86XS8: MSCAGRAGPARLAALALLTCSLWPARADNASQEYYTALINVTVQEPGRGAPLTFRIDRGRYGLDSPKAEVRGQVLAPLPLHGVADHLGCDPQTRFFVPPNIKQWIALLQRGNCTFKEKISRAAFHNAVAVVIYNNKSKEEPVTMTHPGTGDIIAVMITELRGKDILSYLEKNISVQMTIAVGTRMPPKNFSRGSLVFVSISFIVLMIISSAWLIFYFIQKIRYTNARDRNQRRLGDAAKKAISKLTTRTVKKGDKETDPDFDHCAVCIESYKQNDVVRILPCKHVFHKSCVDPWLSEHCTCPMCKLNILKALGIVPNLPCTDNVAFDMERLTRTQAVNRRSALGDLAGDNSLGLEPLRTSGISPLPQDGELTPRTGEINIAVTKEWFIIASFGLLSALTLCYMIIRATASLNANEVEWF
UniProt P08922: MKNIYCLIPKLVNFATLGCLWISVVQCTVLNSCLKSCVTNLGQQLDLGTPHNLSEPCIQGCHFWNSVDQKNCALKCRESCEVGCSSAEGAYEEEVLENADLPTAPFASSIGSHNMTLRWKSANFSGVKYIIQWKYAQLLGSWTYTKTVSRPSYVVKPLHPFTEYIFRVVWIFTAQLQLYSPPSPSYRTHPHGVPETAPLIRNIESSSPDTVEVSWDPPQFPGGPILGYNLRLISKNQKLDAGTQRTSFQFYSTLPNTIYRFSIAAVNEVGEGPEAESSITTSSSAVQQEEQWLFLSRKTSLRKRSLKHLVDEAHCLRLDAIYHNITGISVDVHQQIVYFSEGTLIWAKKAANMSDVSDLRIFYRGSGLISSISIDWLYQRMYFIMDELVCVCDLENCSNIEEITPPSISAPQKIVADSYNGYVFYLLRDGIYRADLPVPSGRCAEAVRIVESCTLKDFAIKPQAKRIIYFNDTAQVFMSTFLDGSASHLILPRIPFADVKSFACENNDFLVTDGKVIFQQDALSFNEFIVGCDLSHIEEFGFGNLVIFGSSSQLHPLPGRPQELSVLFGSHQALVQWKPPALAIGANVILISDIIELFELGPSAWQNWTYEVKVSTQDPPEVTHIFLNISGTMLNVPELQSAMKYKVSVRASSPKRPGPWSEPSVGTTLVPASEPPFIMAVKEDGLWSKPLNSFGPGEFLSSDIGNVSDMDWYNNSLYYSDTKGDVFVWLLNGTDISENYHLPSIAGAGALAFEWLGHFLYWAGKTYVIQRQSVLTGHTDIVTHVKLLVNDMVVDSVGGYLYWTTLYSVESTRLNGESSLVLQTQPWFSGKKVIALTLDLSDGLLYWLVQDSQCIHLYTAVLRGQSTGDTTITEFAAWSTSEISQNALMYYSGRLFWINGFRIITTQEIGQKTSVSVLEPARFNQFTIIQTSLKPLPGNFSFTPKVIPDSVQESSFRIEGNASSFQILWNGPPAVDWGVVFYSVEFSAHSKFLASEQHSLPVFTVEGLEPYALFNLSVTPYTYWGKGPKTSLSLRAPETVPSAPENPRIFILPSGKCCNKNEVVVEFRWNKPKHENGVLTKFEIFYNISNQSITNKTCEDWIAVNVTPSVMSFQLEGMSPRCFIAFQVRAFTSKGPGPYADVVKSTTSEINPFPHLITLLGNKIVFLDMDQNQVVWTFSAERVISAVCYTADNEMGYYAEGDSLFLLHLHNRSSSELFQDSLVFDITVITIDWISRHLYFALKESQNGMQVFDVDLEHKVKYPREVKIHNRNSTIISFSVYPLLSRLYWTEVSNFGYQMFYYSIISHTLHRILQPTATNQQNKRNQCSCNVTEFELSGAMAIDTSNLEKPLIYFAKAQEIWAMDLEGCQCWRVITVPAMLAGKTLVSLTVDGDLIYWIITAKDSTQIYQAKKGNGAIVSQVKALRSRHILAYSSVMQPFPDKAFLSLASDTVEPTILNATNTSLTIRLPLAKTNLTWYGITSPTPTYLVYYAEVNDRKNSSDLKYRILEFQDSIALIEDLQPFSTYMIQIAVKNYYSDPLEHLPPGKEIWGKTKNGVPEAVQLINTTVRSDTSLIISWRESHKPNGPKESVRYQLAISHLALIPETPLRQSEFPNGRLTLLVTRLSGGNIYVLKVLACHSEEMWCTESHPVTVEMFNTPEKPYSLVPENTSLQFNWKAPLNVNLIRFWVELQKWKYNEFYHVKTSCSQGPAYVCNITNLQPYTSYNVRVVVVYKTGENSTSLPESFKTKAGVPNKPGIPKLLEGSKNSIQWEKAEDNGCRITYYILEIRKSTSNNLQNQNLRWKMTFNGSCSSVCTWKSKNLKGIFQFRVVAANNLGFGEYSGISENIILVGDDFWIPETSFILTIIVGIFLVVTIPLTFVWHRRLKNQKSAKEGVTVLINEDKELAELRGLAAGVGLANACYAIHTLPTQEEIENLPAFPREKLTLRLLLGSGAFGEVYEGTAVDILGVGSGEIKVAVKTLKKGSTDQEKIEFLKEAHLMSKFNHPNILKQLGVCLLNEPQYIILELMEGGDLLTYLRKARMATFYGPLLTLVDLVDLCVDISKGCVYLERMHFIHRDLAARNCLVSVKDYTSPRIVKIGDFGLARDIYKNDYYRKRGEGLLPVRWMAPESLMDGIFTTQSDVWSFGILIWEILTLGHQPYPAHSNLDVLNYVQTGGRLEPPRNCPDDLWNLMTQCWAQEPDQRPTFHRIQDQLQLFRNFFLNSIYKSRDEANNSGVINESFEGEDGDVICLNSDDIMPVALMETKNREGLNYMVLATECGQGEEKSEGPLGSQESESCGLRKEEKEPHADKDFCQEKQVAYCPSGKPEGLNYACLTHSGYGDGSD
UniProt Q86UA6: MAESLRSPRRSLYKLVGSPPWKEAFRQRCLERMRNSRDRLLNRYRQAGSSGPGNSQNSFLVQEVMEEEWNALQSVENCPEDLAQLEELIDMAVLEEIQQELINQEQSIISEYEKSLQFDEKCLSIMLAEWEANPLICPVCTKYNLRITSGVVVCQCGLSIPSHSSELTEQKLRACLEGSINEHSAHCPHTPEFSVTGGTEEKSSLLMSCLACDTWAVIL
UniProt Q8WVD3: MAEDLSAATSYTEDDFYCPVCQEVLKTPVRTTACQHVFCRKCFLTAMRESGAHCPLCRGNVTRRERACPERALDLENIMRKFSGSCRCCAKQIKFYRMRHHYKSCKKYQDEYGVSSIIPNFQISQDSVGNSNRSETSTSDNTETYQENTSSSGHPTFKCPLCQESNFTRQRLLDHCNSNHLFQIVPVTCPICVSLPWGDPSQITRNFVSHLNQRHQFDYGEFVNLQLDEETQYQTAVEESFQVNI

log2 fold change, inactive:
RHOXF2B (UniProt P0C7M4) 0.012
RNF4 (UniProt P78317) 0.007
RHOQ (UniProt P17081) -0.115
RNF115 (UniProt Q9Y4L5) -0.015
RNF139 (UniProt Q8WU17) -0.028
RMND5B (UniProt Q96G75) -0.251
RNPEPL1 (UniProt Q9HAU8) 0.096
RP9 (UniProt Q8TA86) 0.041
RNF130 (UniProt Q86XS8) 0.097
ROS1 (UniProt P08922) -0.088
RPAIN isoform 8 (UniProt Q86UA6) 0.038
RNF138 (UniProt Q8WVD3) -0.046
